# Source: PubChem BioAssay AID1347423 (Functional Genomics Laboratory (NCATS/FGL), 2020)
# Out of some 52,000 sequences screened, about 210 (0.4%) were called active.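 Rule for the calls: active = gene whose silencing raises cell survival under the drug, median off-target-corrected z-score across its silencing RNAs 2 or more; inactive = the rest.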 The list shows a part of the results.
# Assay: Resistance to Poly (ADP-Ribose) Polymerase inhibitor: Gene Identification via Genome-wide siRNA Screen
# Details: mouse BRCA2 R2336H ES cells, olaparib, CellTiter-Glo viability; hits give high values
# How it was run: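 Mouse BRCA2 R2336H ES cells were reverse-transfected with siRNA (20 nM final), treated at 48 h with 500 nM olaparib, and read by CellTiter-Glo after 72 h. Scores: MAD-based z per siRNA, median per gene, seed off-target correction.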
row,Sequence,z-score
1,GGGUUAUAGCUAUAGGACUTT against Olfr65,inactive: 0.257
2,GCUUCCAAGACCCUAAAGCTT against Dub1a,inactive: 0.847
3,GCUGCUGUUUAAUUGCUGUTT against Olfr807,inactive: -0.341
4,GCGGCUAUCUGUAGUAGGUTT against Map3k2,inactive: 0.0982
5,GGCUCUGGCCAUAUUUUGGTT against Olfr549,inactive: 1.17
6,GGAAUUUGGAGCAAUUGGATT against 4732418C07Rik,inactive: -0.35
7,GCCCUUUCCGUCUGAAAUCTT against Hydin,inactive: 0.887
8,GGAUGUUUUGAAAUCUCGUTT against 5730439E10Rik,inactive: -0.159
9,CGGAUAGCUUACUAAUCUUTT against Gas7,inactive: 1.93
10,CCUGGCAAGGUUACGAAGUTT against Gsta3,inactive: -0.169
11,GCGGUUUUUUUGGAAGCCATT against Ehf,inactive: -0.805
12,CGCAGAGUUCUAGUAACUCTT against Tcfl5,inactive: 0.409
13,GGUUAUCAGUUGCAUUGUUTT against Gpr37l1,inactive: -1.41
14,GGAGAUUGUGCGCCGUAACTT against Gprc2a,inactive: 0.367
15,GCCUUUAAUCAACCCAAGATT against Scd1,inactive: -0.945
16,CCAUGCCAUGAGCAUCCAUTT against Bbs2,inactive: -1.77
17,GGUUGUGCUGAUAUUUUACTT against D15Ertd735e,inactive: 0.526
18,GGAUGCGUUCUAUGUUGCGTT against Odc1,inactive: -0.271
19,CCUCUUCGUUAAUUGGACATT against Fbxw2,inactive: -0.502
20,GGCUAUGUAGAUCUUGUCATT against Nqo3a2,inactive: 0.626
21,GGGCUUGUAGAUGUGCGUATT against Hic2,inactive: -1.3
22,GCCCAGCUAACUUCCACCUTT against Mmp10,inactive: -0.187
23,CCAUUUUUCCUACGUGGGUTT against AA407930,inactive: 0.00816
24,GGUCUGAGUUUUAAACAGUTT against Gmfb,inactive: 0.0999
25,GGCCUGAAGAAGAUGCAGGTT against Rpl29,inactive: -0.00873
26,GGAGAUUUGCCGUAUGGAUTT against Wwox,inactive: -1.81
27,CCUGAUCCGAUCAUCAGGATT against Pscdbp,inactive: -0.447

# Reformatted with bars between the fields: entries from further up
row | Sequence | z-score
23 | CCAUUUUUCCUACGUGGGUTT against AA407930 | inactive: 0.00816
24 | GGUCUGAGUUUUAAACAGUTT against Gmfb | inactive: 0.0999
25 | GGCCUGAAGAAGAUGCAGGTT against Rpl29 | inactive: -0.00873
26 | GGAGAUUUGCCGUAUGGAUTT against Wwox | inactive: -1.81
27 | CCUGAUCCGAUCAUCAGGATT against Pscdbp | inactive: -0.447

# Next records:

row,Sequence,z-score
1,GGAAAAUGGUUCUUUCUGCTT against 6330583M11Rik,inactive: 1.17
2,CUCAAUGGGAGCCACUUUUTT against LOC434197,inactive: -1.85
3,GGAUAUAAGACACAAGCUGTT against Mpa2,inactive: -0.433
4,GGAUCAUAUGCAGAAAUCUTT against Zfp62,inactive: 1.1
5,GGAAAGACAAAAUCUAUGATT against Peg3,inactive: 0.715
6,GGUAUAAACCAAAAAGCAGTT against 0610012K18Rik,inactive: -0.116
7,GGAGGAGUUUCGCUACGGATT against Sars2,inactive: -0.403
8,GCCGGAUCCGAACAAGGAUTT against 3000003F02Rik,inactive: 0.0925
9,CCUUCGAGAUUGAACUGUATT against Numbl,inactive: 0.358
10,GGCUGAAGUUAUCCUGCCATT against 4933430J11,inactive: 0.181
11,GCCUAUCACGAGCUAUGAUTT against Shkbp1,inactive: -1.79
12,GGCUGAUGUGGUGUGCUAUTT against Aoah,inactive: 0.392
13,GGCUCAAAAAGAAAGAGUUTT against Myh2,inactive: -0.441
14,CCUCAACACUCAGCUCAAUTT against Ifna14,inactive: -1.13
15,GGUCCAAGUAGCUCUUCACTT against Olfr5,inactive: 1.79
16,GCUCUCACAAGAUUGUUUCTT against Eapa2,inactive: 0.578
17,CGAUGGUGAUUCCCAUGUUTT against Olfr996,inactive: -0.114
18,GGGAAAUCACCAUAUUUCCTT against 9030605H24Rik,inactive: -0.0686
19,AGAAGUCCUCAAAAUGACCTT against V1rd20,inactive: -1.11
20,GCCAAACAUGGAGAGAGCATT against C630004H02Rik,inactive: -2.56
21,CCAGUGGAGUAAACUGUAATT against Ltbp1,inactive: 1.13
22,GGUCUUUUGUAAAAACCCUTT against Sytl2,inactive: -0.0827
23,CGGCACUCGAAAGUUUUUATT against Rassf2,inactive: 0.485
24,GGAGUUAUACAGGUUUAUGTT against Nup155,inactive: -0.082
25,GGGUUUGGACUGAUAUACUTT against Vrk2,inactive: -0.393
26,CCAUGGUACUAAUGUAAAUTT against Eef1e1,inactive: 0.272
27,GGAGGAGUAUGAAGAGCUGTT against 1200014M14Rik,inactive: -1.99

row,Sequence,z-score
1,GGCACUCAAUGGUGAGCAATT against Sipa1,inactive: 0.847
2,GGAUAAGGACCUCUUCUCUTT against 2300004C15Rik,inactive: -1.05
3,GGCAUUGCUGGACUUUGAATT against Mvp,inactive: -2.8
4,GGUUAUCCACAUCUUCUCUTT against Mutyh,inactive: 1.26
5,GCCCAUCUUAGCAUUCUCUTT against Aldh4a1,inactive: -0.0534
6,GGCCUGGAUUCCUUAACAATT against Lgi1,inactive: -1.52
7,GGAGAAAAUUGCCUAUCUGTT against Tuft1,inactive: -0.19
8,GCUCAUGACUUUUAGCGGCTT against Mif,inactive: 0.945
9,GCCUUUGAGUUUUAAGCCATT against Cobl,inactive: -1.15
10,GGACUAGAAAUUAGUACCATT against Klf15,inactive: -1.35
11,GGGUGAAAGUUCAAGGUCUTT against Prss35,inactive: 1.13
12,GGUUUCCCUUUGUAUCAUGTT against Olfr1451,inactive: -0.791
13,GGACAAGAAGCAGGACAUCTT against Golga4,inactive: -2.08
14,GGAGCAUCAGACAUUAGACTT against Pdcd2,inactive: 0.585
15,GGGCAGAUGGAAGAGAUCATT against Onecut1,inactive: 1.37
16,GCGAAGUGAAGACAUUGUATT against Calm2,inactive: 1.31
17,GACAUAUUUUCAUCACUGATT against V1rc16,inactive: 0.721
18,GGUAAAUACUGUUUCUUAGTT against 2700023B17Rik,inactive: 0.498
19,GGGUUUUAAGAAUCAGACUTT against Egfl3,inactive: 0.999
20,GCCAUACUUUAAGAGUGUGTT against 9330161F08Rik,inactive: -1.73
21,GGUUAUUACACUCUACAAATT against Ceacam11,inactive: -0.313
22,GCUAACUUAGAUAUCCAGGTT against AW539457,inactive: -1.04
23,GGAAUAGAACGAAUUUCUGTT against Lsm11,inactive: -0.0293
24,GCCUAAGAACGAUGACACUTT against Surf2,inactive: 0.252
25,GGGCUAGCAUCACAGUUUUTT against MGC67569,inactive: -0.729
26,CGACAGUGUUAGCAUUAAATT against Pros1,inactive: 0.187
27,GCCUUUCUACUUAUUACCATT against Map3k7,inactive: -0.634

row,Sequence,z-score
1,GGUCUCCAUUUCUUUCUGCTT against C87860,inactive: 0.953
2,GGUACCGGAAAGGAAGUGUTT against Grm1,inactive: -0.666
3,GCUCAUGGACCAACCUAUGTT against Olfr1180,inactive: -1.44
4,GGUUCUGGAAGGACAGGAATT against BC034054,inactive: -2.9
5,GCGAAGACGGAAGCAUAUUTT against Noc4,inactive: -2.07
6,GGAUUUGAAGAAAGAUGGATT against Gdd1,inactive: 0.171
7,GCUCAGCAUAUUUGUACAUTT against Thbd,inactive: 0.979
8,GGCUGCUUAAGUGUAUCAGTT against 5730599I05Rik,inactive: 0.661
9,GGACUAGAAUGUGACCUUGTT against 2210417J20Rik,inactive: -1.24
10,GGAAGAACAAAAAACCAUGTT against Sf3b2,inactive: -3.2
11,GGAGAUCACAGAAAAGUAUTT against Pex19,inactive: -0.897
12,GUGACCUCAUCCAGAAAAUTT against V1ri8,inactive: 2.04
13,GGAAAGUGAGGACAAAUAUTT against Cst8,inactive: 0.838
14,GGCCCACCGAGAGAAACUATT against Cpsf1,inactive: 0.154
15,GCUUUUUAUCCGUGUCGAUTT against 4930474N05,inactive: 0.184
16,GGAUUUCUGGGACUCCACUTT against Tnfsf10,inactive: 0.08
17,GGAAGAGAGCGAUUAAAUUTT against 1500011J06Rik,inactive: -0.0424
18,GGUAUGGGAGAUGACUCUATT against C78212,inactive: -2.46
19,UUUGAACAGUCACUCCUCGTT against BQ176089,inactive: -0.239
20,GGUCUCCCUCUUCCAUAACTT against Klk10,inactive: -0.526
21,GGCGGAAAAGUGUGCAAUATT against Cd244,inactive: 0.488
22,GGACAACUCCAAUUCCCUATT against Rasgrp2,inactive: 1.55
23,CCUACAGCAACCAUAAGGATT against A930027K05Rik,inactive: 1.26
24,GCGUAUUGAUAUAAGCUCUTT against D14Ertd171e,inactive: -0.213
